Laboratory results reported in paper PMC5524641.
Results are given in words; binding and its absence hold for the method and conditions named. Binding seen in cells or lysates may run through a third protein. Some binding calls cover weakened binding; strength is not graded here.

Sequences of proteins named here, by UniProt entry; tags and fusion partners are left off. Residues count along the entry.
p62ZZ-GST (93-residue fragment, residues 83–175) (Q13501, residues 83-175): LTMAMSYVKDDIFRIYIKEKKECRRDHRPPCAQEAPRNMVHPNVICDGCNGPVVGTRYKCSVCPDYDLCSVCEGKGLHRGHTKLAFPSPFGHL

Assays:
[1] = target: L-peptide (L-I-F-S-T-I-E-G-R-T-Y-K-biotin); assay: pull-down; […]) in 0.05% Tween 20, 10% glycerol, 0.2 M KCl, 20 mM HEPES pH 7.9; […]; only the target purified
[2] = target: Y-peptide (Y-I-F-S-T-I-E-G-R-T-Y-K-biotin); assay: as above
[3] = target: L-peptide (L-I-F-S-T-I-E-G-R-T-Y-K-biotin); assay: pull-down; X-peptide pulldown assay using 93-residue p62ZZ-GST
[4] = target: Y-peptide (Y-I-F-S-T-I-E-G-R-T-Y-K-biotin); assay: as above

Substance	binding [1]	binding [2]	binding [3]	binding [4]
endogenous p62 (HEK293 cells) (from UniProt Q13501 1-440)	no binding	binds	–	–
p62ZZ-GST (93-residue fragment, residues 83–175) (from UniProt Q13501 83-175) (domain or fragment)	–	–	no binding	binds
